# Assay results from US5734012A (Ohmeda Pharmaceutical Products Division Inc., priority 1996, dated 1998).
# What was measured:
# [1] = general procedure: Boc solid-phase peptide synthesis; MBHA resin (1% cross-linked divinyl benzene-styrene, 200-400 mesh, 0.27 meq/g); BOP/triethylamine (on-resin cyclization); details: whole synthesis, bis-trifluoroacetate salt; for crude yield / isolated yield: scale of the general procedure 1 g of MBHA resin
# [2] = general procedure: Boc solid-phase peptide synthesis; MBHA; BOP/triethylamine (on-resin cyclization); details: whole synthesis, bis-trifluoroacetate salt
Substance,isolated mass [1],crude yield [1],isolated yield [1],crude mass [2],crude mass [1]
"Cyclo^10,14 [Asp^10,Leu^13,Lys^14 ]motilin-(1-14)-peptide Amide (Porcine) Bis-Trifluoroacetate Salt",86 mg,87%,16%,400 mg,–
"Cyclo^10,14 [N,N,N-TrimethylPhe^1,Glu^10, Ala^11,Leu^13, Lys^14 ]motilin-(1-14)-peptide Amide(Porcine) Bis-Trifluoroacetate Salt",56 mgs,87%,12%,–,400 mg
"Cyclo^10,14 [N-MethylPhe^1,Glu^10, Ala^11,Leu^13, Lys^14 ]motilin-(1-14)-peptide Amide (Porcine) Bis-Trifluoroacetate Salt",40 mg,45%,10%,–,200 mg
